Assay results: the supplement of paper PMC3334620
The full ranking holds about 33,000 sequences; the median of “E-score (-0.5 to 0.5)” is about -0.015, and the highest 2% start at about 0.3. Some of the results follow.

Target: T1, Abf1 (UniProt P14164)
T1 sequence: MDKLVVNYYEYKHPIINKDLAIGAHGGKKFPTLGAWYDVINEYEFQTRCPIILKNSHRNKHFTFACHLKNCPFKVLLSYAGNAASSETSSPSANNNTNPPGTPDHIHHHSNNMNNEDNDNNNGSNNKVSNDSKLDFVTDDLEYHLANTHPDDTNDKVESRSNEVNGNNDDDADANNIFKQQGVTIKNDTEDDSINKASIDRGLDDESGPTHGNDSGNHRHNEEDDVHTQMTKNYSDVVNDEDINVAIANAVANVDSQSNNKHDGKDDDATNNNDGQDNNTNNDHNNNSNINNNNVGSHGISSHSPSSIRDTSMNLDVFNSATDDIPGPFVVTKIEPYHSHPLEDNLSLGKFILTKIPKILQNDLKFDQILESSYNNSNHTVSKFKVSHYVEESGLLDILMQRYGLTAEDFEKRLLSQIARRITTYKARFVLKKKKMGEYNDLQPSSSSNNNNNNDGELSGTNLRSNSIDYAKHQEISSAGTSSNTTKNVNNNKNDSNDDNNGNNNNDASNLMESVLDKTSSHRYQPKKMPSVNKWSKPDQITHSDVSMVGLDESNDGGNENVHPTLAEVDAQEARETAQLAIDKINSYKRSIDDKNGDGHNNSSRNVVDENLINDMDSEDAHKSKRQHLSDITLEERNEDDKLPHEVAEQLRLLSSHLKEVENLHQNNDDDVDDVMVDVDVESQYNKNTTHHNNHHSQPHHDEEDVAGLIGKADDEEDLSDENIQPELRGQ
Test: PBM E-score (8-mer binding enrichment) (E-score (-0.5 to 0.5)); higher = stronger / more preferred TF binding
Settings: protein concentration: 200 nM; construct: GST-full length
Method in brief: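 Bound GST-tagged yeast transcription factors, applied at about 100-200 nM to double-stranded universal all-10-mer Agilent arrays, were detected with fluorescent anti-GST. Scans were normalised with masliner. A modified Wilcoxon-Mann-Whitney statistic, the E-score, was assigned to each ungapped eight-base word pooled with its reverse complement by the Universal PBM Analysis Suite.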

Sequence | PBM E-score
GATACAGA | -0.00729
GAAGGTGC | -0.15
GTTCTCTA | 0.0211
CGCTTAGA | -0.223
CATGCCAG | -0.203
CCAAGATA | 0.0521
AACTGGCC | -0.0128
ACGATGTC | 0.225
AGCGTTAT | 0.0548
GATATCTA | 0.26
CATCGCCA | 0.103
AAACCCTT | -0.136
GATAGGTA | 0.0863
GCTCGCGA | 0.2
AATCCTGG | -0.208
ACATTTAG | -0.0407
TCGATCGA | -0.141
CGCCGTGC | 0.166
TTACACAA | 0.134
CTGGATTA | 0.118
TCGCTGCA | 0.079
CGCGCGCG | -0.042
ATACTCGA | -0.117
CTGTAGAC | -0.109
ATGACTTA | 0.242

Sequence | PBM E-score
AACGTAGC | 0.176
GCTGCTCC | -0.194
GAGCGCGA | 0.0052
CACGGAAG | 0.0921
ACATGGGC | 0.0612
CGCTGTAC | -0.228
ACCCTTCT | -0.15
TCCGCTAA | 0.0328
CGCCGTCA | 0.199
AGCGTGAA | 0.0285
AGGTCCTC | -0.171
TAGGCAGA | 0.0907
GCTGGGCA | -0.0531
GAGTGATC | 0.327
ATTTACGA | 0.253
ATCTGACC | 0.042
AAGACCGC | -0.15
CATCATCG | 0.229
CCACCTAG | -0.225
ACCAACTA | 0.0184
TCCGGAGA | -0.178
GATGGTGC | -0.28
AGGTGCTA | -0.0656
ATGAACTA | -0.181
ACCTATGC | -0.226

Part of the list above in another layout:
Sequence	PBM E-score
CGCTTAGA	-0.223
AGCGTTAT	0.0548
TCGATCGA	-0.141
TCGCTGCA	0.079
ACATGGGC	0.0612
AGGTCCTC	-0.171

Later entries.

Sequence | PBM E-score
CGCGTTAG | 0.0943
ACGTCTTC | -0.0652
CCCAGCCA | 0.0326
CCTCGGTA | -0.267
ATGTCTAG | 0.211
ATACGTGA | 0.241
TATTTTAA | 0.174
CCCATCAG | -0.384
CGGCATAG | 0.0597
CCCGACAG | 0.0267
ATTACGAA | 0.281
ACCCCAGC | 0.124
ACGCAAAC | -0.0491
ATATGAAT | -0.00615
CCCGTTAG | -0.142
AGGCCGGC | -0.286
CCGCGCCC | -0.247
AAGAGTAC | 0.0113
GGCCCGGA | -0.234
AATAGAGC | -0.168
CGTATGGC | 0.249
GTCTTGGA | -0.188
TCTCAAGA | -0.00332
CAAAATCA | 0.173
CGAGGTCA | 0.0811

Single entries from the results shown:
TCTCAAGA – PBM E-score: -0.00332
GGCCCGGA – PBM E-score: -0.234
CCCAGCCA – PBM E-score: 0.0326

Remaining list, next part.

Sequence | PBM E-score
GCTCCCGA | -0.233
ACTTGCGC | -0.045
TAAATCTA | 0.141
AGGGAAGG | -0.23
AGCTGCGC | -0.182
CCATTCTC | -0.082
ATAGTACA | 0.251
CGGTGTAG | -0.108
AACGCAAT | 0.0456
AAGCATCA | -0.0094
ACCACTTC | -0.0468
CGTTTCTC | -0.148
GCTGTCCC | -0.21
CGCCCCAA | -0.14
GAGTTCCA | -0.0115
AGCGTGCC | -0.076
ACTGGCTA | -0.0948
CTCAGTAC | -0.1
AGGACCAA | -0.0325
AACTCCAA | -0.0622
CCACCTAC | -0.011
CATAAAAG | 0.0549
CAACAAGA | 0.0472
ACATCGAA | 0.185
AGATAGGA | -0.117

Sequence | PBM E-score
AGGAGTAG | -0.0714
AGAAACAC | -0.0584
CCCGCTAC | 0.134
ACTTACAT | -0.0917
CCTCTGTC | -0.0632
CACGTAAA | -0.155
AAAAGGAT | 0.174
GACGTCAC | 0.233
ACCATAAC | -0.0289
CTAAGAAA | 0.0591
AGCTGCAC | -0.0495
GACTCCAC | -0.286
ACTACCCT | -0.23
ACCCTTAA | -0.0261
ACTCTTTG | -0.0213
TCGGGCCA | -0.182
CCAACCAC | 0.0854
AACTCACA | 0.0255
ACAGGGGT | 0.0457
AGCAGCAA | -0.152
GGGCGGGA | -0.118
AGCGTTTG | -0.116
CGGAGTGC | -0.0789
CCGTCCAA | 0.117
ACCAACAC | -0.0641

Sequence | PBM E-score
CGAGTACA | 0.00925
AGGATCGC | 0.109
GCAGGCAC | -0.145
ACGACCGT | 0.061
AAAATAAG | 0.127
ATTGCTTC | 0.0681
CAGGTTGA | -0.172
CCTCCATC | -0.106
CACATAGG | -0.0151
AAAACAAC | -0.0575
AACCGGCA | -0.125
ATCGCGGC | 0.111
CCATGCAG | -0.22
AGGGCAAC | -0.0898
ACATTTCT | 0.0747
CACTCAAG | -0.0316
GCGCCTCA | -0.23
CGAACGCA | 0.197
CCCATATC | -0.00171
ATTTCCAG | -0.104
CCCTTAAA | 0.109
CGCAACAA | 0.0283
GCTTCTAA | -0.132
CCTTAGTC | 0.0399
GAGGCGAC | -0.0714

Sequence | PBM E-score
AGCAACTA | 0.0764
CTGGTTAC | -0.108
ATCTTAAT | 0.0845
TCGGCCCA | -0.0739
ATTTGGGG | -0.0322
CAAGCGAA | 0.0652
GGCTCGGA | -0.23
CAAAGTTA | 0.136
GGTAGGGA | -0.177
AAGGCCGG | -0.184
TCGTTACA | 0.179
GCTTAGAA | -0.0686
CTGTAGCA | -0.139
AATCCATC | 0.0589
ACTCGGGC | -0.0124
AGCACATA | -0.0221
ATGATGTA | 0.272
GATGCACA | 0.0424
GTTGTCGA | -0.122
ATTTCCCC | -0.0526
ACGGACCG | -0.0268
GAACTTGA | -0.0345
GGTATTTA | 0.0301
AAAAGAAG | 0.0358
ATGCTTTC | -0.0481

Some of the entries so far, as tab-separated lines:
Sequence	PBM E-score
AACTGGCC	-0.0128
TCCGCTAA	0.0328
ACGCAAAC	-0.0491
CCGCGCCC	-0.247
CGTTTCTC	-0.148
ATTTCCAG	-0.104

Continuation.

Sequence | PBM E-score
CTAACCGC | -0.064
CCGGAGAG | -0.223
GATGATCC | 0.0853
CTATAGAA | -0.136
AGGTGGTG | -0.0773
CTTACGTA | 0.212
AACGAAAA | 0.103
AACGAGAA | 0.085
ATCGTAGA | 0.28
CTAACTCC | -0.126
TTATCGAA | 0.107
TAGTCGGA | 0.00166
ACCCGAGT | -0.152
ATAAGAAA | -0.0297
ACTAACCG | -0.183
TACCTACA | 0.0423
AACTTTCC | -0.106
GCTAGCGA | -0.00265
ACGGAGAC | 0.137
GATTAACA | 0.127
ACAAAGCG | -0.0535
GGCGTATA | -0.0363
ACCGAACC | -0.211
ATGCTAGA | 0.052
AAGTTATA | 0.0911

Sequence | PBM E-score
CGTAGGAA | 0.247
ACAGCCGT | 0.0627
TCGCGCCA | -0.242
ATTACTAC | 0.0767
AGACCTGG | -0.286
TCATTAGA | 0.137
AGTTTCGA | -0.113
CCATTGGC | -0.149
ATTAGCAG | 0.1
CGGCTCGA | -0.0781
ATGGATGG | -0.121
CATCCTGG | 0.0462
TCTAGTAA | 0.123
ATTACCGG | -0.0837
AGAAAGAA | -0.0104
GCTGCTGA | -0.0614
AGGTGCGA | 0.052
AACCCCCG | -0.297
ATTTTTCC | 0.114
